Assay results taken from patent publication US8138211B2, “Isothiazolyloxyphenylamidines and their use as fungicides” (Bayer Cropscience AG, priority 2009, dated 2012).
Some results were stated once for a whole list of compounds, not compound by compound. At least one compound was matched to its structure with a doubt left.

What was measured:
Type in all cases: in vivo
Sphaerotheca fuliginea = experiment: Sphaerotheca test (cucumber)/protective; settings: active compound concentration of 500 ppm, protective, evaluation 7 days after inoculation
Puccinia recondita = experiment: Puccinia test (wheat)/protective; settings: active compound concentration of 500 ppm, protective, evaluation 7-9 days after inoculation
Botrytis cinerea = experiment: Botrytis test (bean)/protective; settings: active compound concentration of 250 ppm, protective, evaluation two days after inoculation
Uromyces appendiculatus = experiment: Uromyces test (bean)/protective; settings: active compound concentration of 10 ppm, protective, evaluation 10 days after inoculation
Septoria tritici = Septoria tritici test (wheat)/protective; settings: active compound concentration of 500 ppm, protective, evaluation 21 days after inoculation
Pyrenophora teres = Pyrenophora teres test (barley)/protective; settings: active compound concentration of 500 ppm, protective, evaluation 8 days after inoculation

Measured: efficacy

Cc1cc(Oc2snc(C(C)(C)C)c2C#N)c(C)cc1/N=C/N1CCCCC1 [compound 7]
≥ 70%: Sphaerotheca fuliginea | Puccinia recondita | Botrytis cinerea | Uromyces appendiculatus

Cc1cc(Oc2snc(-c3ccccc3)c2C#N)c(Cl)cc1N=CN(C)C [compound 11]
≥ 70%: Sphaerotheca fuliginea | Puccinia recondita | Botrytis cinerea

Cc1cc(Oc2snc(-c3ccc(Cl)cc3)c2C#N)c(C)cc1/N=C/N1CCCCC1 [compound 20]
not listed: Pyrenophora teres
≥ 70%: all other assays above

CCCN(C)C=Nc1cc(C)c(Oc2snc(-c3ccc(Cl)cc3)c2C#N)cc1C [compound 21]
not listed: Pyrenophora teres
≥ 70%: all other assays above

Cc1cc(Oc2snc(-c3ccc(Cl)cc3)c2C#N)c(C)cc1N=CN(C)C [compound 23]
≥ 70%: Sphaerotheca fuliginea | Puccinia recondita | Botrytis cinerea | Uromyces appendiculatus

CCN(C)C=Nc1cc(C)c(Oc2snc(-c3ccc(C(C)(C)C)cc3)c2C#N)cc1C [compound 28]
≥ 70%: Sphaerotheca fuliginea | Puccinia recondita | Botrytis cinerea | Septoria tritici

Cc1cc(Oc2cc(-c3ccccc3)ns2)c(C)cc1N=CN(C)C [compound 42]
≥ 70%: Sphaerotheca fuliginea | Puccinia recondita | Botrytis cinerea | Uromyces appendiculatus

Cc1cc(Oc2snc(-c3ccccc3)c2Cl)c(C)cc1/N=C/N1CCCCC1 [compound 50]
≥ 70%: Sphaerotheca fuliginea | Puccinia recondita | Botrytis cinerea | Uromyces appendiculatus

Cc1cc(Oc2snc(-c3ccccc3)c2Cl)c(Cl)cc1/N=C/N1CCCCC1 [compound 53]
≥ 70%: Sphaerotheca fuliginea | Puccinia recondita | Botrytis cinerea | Uromyces appendiculatus

Cc1cc(Oc2snc(-c3ccccc3)c2Br)c(Cl)cc1/N=C/N1CCCCC1 [compound 56]
≥ 70%: Sphaerotheca fuliginea | Puccinia recondita | Botrytis cinerea

Cc1cc(/N=C/N2CCCCC2)c(Cl)cc1Oc1snc(C(C)(C)C)c1Cl [compound 69]
not listed: Pyrenophora teres
≥ 70%: all other assays above

Cc1cc(Oc2snc(C(C)(C)C)c2Cl)c(Cl)cc1N=CN(C)C(C)C [compound 71]
not listed: Pyrenophora teres
≥ 70%: all other assays above

Cc1cc(Oc2cc(C(C)(C)C)ns2)c(C)cc1N=CN(C)C [compound 73]
not listed: Botrytis cinerea
≥ 70%: all other assays above

CCCN(C)C=Nc1cc(C)c(Oc2cc(C(C)(C)C)ns2)cc1C [compound 75]
not listed: Botrytis cinerea
≥ 70%: all other assays above

Cc1cc(Oc2snc(-c3cccc(F)c3)c2C#N)c(C)cc1N=CN(C)C [compound 76]
≥ 70%: Sphaerotheca fuliginea | Puccinia recondita | Botrytis cinerea | Uromyces appendiculatus

Cc1cc(Oc2snc(-c3cccc(F)c3)c2C#N)c(C)cc1N=CN(C)C(C)C [compound 77]
≥ 70%: Sphaerotheca fuliginea | Puccinia recondita | Botrytis cinerea | Uromyces appendiculatus

Cc1cc(Oc2snc(C)c2Cl)c(Cl)cc1/N=C/N1CCCCC1 [compound 86]
not listed: Uromyces appendiculatus
≥ 70%: all other assays above

Cc1cc(Oc2snc(CC(C)(C)C)c2C#N)c(C)cc1N=CN(C)C(C)C [compound 97]
not listed: Uromyces appendiculatus
≥ 70%: all other assays above

Cc1cc(N=CN(C)C)c(Cl)cc1Oc1snc(-c2cccc(F)c2)c1C#N [compound 104]
≥ 70%: Sphaerotheca fuliginea | Puccinia recondita | Botrytis cinerea | Septoria tritici

CCN(C)C=Nc1cc(Cl)c(Oc2snc(C)c2Br)cc1C [compound 108]
≥ 70%: Botrytis cinerea | Uromyces appendiculatus

Cc1cc(Oc2snc(-c3cccc(F)c3)c2C#N)c(Cl)cc1N=CN(C)C [compound 114]
≥ 70%: Sphaerotheca fuliginea | Puccinia recondita | Botrytis cinerea

Cc1cc(N=CN(C)C)c(Cl)cc1Oc1snc(CC(C)(C)C)c1C#N [compound 117]
not listed: Botrytis cinerea
≥ 70%: all other assays above

Cc1cc(N=CN(C)C(C)C)c(Cl)cc1Oc1snc(CC(C)(C)C)c1C#N [compound 118]
not listed: Botrytis cinerea
≥ 70%: all other assays above

Cc1cc(Oc2snc(C(C)(C)c3ccccc3)c2C#N)c(C)cc1N=CN(C)C(C)C [compound 121]
not listed: Uromyces appendiculatus
≥ 70%: all other assays above

Cc1cc(Oc2snc(-c3ccccc3Cl)c2C#N)c(Cl)cc1N=CN(C)C [compound 126]
≥ 70%: Sphaerotheca fuliginea | Puccinia recondita | Botrytis cinerea | Septoria tritici

Cc1cc(Oc2snc(-c3ccccc3F)c2C#N)c(C)cc1N=CN(C)C [compound 127]
≥ 70%: Sphaerotheca fuliginea | Puccinia recondita | Botrytis cinerea | Uromyces appendiculatus

CCN(C)C=Nc1cc(C)c(Oc2snc(-c3ccc(C)cc3)c2C#N)cc1C [compound 159]
not listed: Pyrenophora teres
≥ 70%: all other assays above

CCN(C)C=Nc1cc(C(C)(C)C)c(Oc2snc(C(C)(C)C)c2C#N)cc1C [compound 168]
≥ 70%: Sphaerotheca fuliginea | Puccinia recondita | Botrytis cinerea

Cc1cc(Oc2snc(C3(C)CC3)c2C#N)c(C)cc1N=CN(C)C [compound 177]
≥ 70%: Botrytis cinerea | Uromyces appendiculatus

CCC(C)(CC)c1nsc(Oc2cc(C)c(N=CN(C)C)cc2Cl)c1C#N [compound 185]
≥ 70%: Botrytis cinerea | Septoria tritici

CCN(C)C=Nc1cc(C)c(Oc2snc(C(C)(C)C)c2C#N)cc1Cl.Cl [compound 204]
≥ 70%: Sphaerotheca fuliginea | Puccinia recondita | Uromyces appendiculatus

Cc1cc(Oc2snc(-c3ccc(Cl)cc3Cl)c2C#N)c(C)cc1N=CN(C)C [compound 211]
≥ 70%: Sphaerotheca fuliginea | Puccinia recondita | Botrytis cinerea | Uromyces appendiculatus

COc1ccccc1-c1nsc(Oc2cc(C)c(N=CN(C)C)cc2C)c1C#N [compound 249]
≥ 70%: Sphaerotheca fuliginea | Puccinia recondita | Botrytis cinerea | Uromyces appendiculatus

CCN(C)C=Nc1cc(Cl)c(Oc2snc(-c3ccc(OC)cc3)c2C#N)cc1C [compound 255]
≥ 70%: Sphaerotheca fuliginea | Puccinia recondita | Septoria tritici | Pyrenophora teres

CCN(C)C=Nc1cc(Cl)c(Oc2snc(-c3cccc(OC)c3)c2C#N)cc1C [compound 263]
≥ 70%: Sphaerotheca fuliginea | Puccinia recondita | Septoria tritici | Pyrenophora teres

COc1ccc(-c2nsc(Oc3cc(C)c(N=CN(C)C)cc3C)c2C#N)cc1 [compound 270]
≥ 70%: Sphaerotheca fuliginea | Puccinia recondita | Botrytis cinerea | Uromyces appendiculatus

CCN(C)C=Nc1cc(C)c(Oc2snc(-c3cccc(OC)c3)c2C#N)cc1C [compound 271]
≥ 70%: Sphaerotheca fuliginea | Puccinia recondita | Septoria tritici | Pyrenophora teres

COc1ccc(-c2nsc(Oc3cc(C)c(N=CN(C)C(C)C)cc3C)c2C#N)cc1 [compound 272]
≥ 70%: Sphaerotheca fuliginea | Puccinia recondita | Septoria tritici | Pyrenophora teres

Cc1cc(Oc2snc(C(C)(C)F)c2C#N)c(Cl)cc1N=CN(C)C [compound 274]
≥ 70%: Sphaerotheca fuliginea | Puccinia recondita | Septoria tritici | Pyrenophora teres

CCN(C)C=Nc1cc(C)c(Oc2snc(C(C)(C)F)c2C#N)cc1Cl [compound 275]
≥ 70%: Sphaerotheca fuliginea | Puccinia recondita | Septoria tritici | Pyrenophora teres

CCN(C)C=Nc1cc(C)c(Oc2snc(-c3ccc(F)cc3Cl)c2C#N)cc1C [compound 283]
≥ 70%: Sphaerotheca fuliginea | Puccinia recondita | Septoria tritici | Pyrenophora teres

Cc1cc(Oc2snc(C(C)C)c2Cl)c(C)cc1N=CN(C)C [compound 284]
≥ 70%: Sphaerotheca fuliginea | Puccinia recondita | Septoria tritici | Pyrenophora teres

Cc1cc(Oc2snc(C(C)C)c2Cl)c(C)cc1N=CN(C)C(C)C [compound 285]
≥ 70%: Sphaerotheca fuliginea | Puccinia recondita | Septoria tritici | Pyrenophora teres

CCN(C)C=Nc1cc(C)c(Oc2snc(C(C)C)c2Cl)cc1C [compound 286]
≥ 70%: Sphaerotheca fuliginea | Puccinia recondita | Septoria tritici | Pyrenophora teres

CCN(C)C=Nc1cc(C)c(Oc2snc(C(C)C)c2Cl)cc1Cl [compound 287]
≥ 70%: Sphaerotheca fuliginea | Puccinia recondita | Septoria tritici | Pyrenophora teres
